Laboratory results: PMC6691575
Results are given in words; binding and its absence hold for the method and conditions named. In cells and extracts the contact can be indirect. A yes stands for co-enrichment or nearness to the bait. Other partners may have been found.

Chains of the proteins cited; added tags and fusions are not shown.
UniProt P09429: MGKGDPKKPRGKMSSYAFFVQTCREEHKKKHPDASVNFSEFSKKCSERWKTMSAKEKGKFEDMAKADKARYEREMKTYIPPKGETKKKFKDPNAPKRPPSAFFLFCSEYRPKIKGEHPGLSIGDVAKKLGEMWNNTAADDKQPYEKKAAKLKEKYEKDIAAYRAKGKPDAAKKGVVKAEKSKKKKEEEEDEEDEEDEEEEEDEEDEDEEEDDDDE
UniProt P51532: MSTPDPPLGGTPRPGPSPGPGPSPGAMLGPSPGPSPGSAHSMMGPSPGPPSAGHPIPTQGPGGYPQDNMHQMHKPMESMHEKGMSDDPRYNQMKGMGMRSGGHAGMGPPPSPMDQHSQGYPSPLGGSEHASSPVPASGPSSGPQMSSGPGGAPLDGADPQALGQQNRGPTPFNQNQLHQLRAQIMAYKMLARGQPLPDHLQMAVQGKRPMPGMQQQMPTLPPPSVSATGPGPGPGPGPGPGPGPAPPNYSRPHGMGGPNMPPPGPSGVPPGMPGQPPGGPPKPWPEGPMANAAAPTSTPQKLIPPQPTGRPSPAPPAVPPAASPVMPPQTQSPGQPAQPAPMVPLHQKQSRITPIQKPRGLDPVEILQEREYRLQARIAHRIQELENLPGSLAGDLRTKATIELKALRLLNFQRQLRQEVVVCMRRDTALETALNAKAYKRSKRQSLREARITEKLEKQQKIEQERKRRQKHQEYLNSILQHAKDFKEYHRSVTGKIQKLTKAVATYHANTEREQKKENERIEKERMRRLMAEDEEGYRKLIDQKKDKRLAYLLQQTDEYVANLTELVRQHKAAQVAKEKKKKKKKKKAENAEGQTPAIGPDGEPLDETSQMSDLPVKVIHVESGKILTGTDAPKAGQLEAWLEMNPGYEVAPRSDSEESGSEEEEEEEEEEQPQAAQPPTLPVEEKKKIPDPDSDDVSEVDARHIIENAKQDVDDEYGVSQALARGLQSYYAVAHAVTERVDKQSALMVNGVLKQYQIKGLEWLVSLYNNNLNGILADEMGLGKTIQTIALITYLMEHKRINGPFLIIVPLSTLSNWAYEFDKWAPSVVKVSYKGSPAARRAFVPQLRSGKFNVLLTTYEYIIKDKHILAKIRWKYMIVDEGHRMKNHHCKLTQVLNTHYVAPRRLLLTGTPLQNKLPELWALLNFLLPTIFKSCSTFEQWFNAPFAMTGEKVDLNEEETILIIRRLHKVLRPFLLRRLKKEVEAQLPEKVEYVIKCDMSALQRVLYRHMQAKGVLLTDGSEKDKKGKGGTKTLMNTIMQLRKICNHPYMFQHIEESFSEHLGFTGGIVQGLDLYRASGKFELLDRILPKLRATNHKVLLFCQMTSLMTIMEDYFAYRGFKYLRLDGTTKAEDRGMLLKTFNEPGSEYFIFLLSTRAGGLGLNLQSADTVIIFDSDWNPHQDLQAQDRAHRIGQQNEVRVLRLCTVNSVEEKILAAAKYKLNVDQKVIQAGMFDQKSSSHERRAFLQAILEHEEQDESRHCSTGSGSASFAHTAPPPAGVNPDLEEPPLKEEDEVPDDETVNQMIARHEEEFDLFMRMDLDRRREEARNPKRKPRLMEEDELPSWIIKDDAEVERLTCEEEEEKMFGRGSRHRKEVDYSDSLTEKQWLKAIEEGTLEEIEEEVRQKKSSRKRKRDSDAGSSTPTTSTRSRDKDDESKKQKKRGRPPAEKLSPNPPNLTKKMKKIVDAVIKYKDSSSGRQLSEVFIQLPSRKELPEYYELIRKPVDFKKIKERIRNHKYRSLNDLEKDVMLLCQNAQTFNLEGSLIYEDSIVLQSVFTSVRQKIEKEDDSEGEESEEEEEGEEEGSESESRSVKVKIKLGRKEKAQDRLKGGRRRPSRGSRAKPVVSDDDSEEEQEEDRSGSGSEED

Target: high-mobility group box 1 (HMGB1) (human (endogenous in PC-3 and LNCaP)) (UniProt P09429)
Assay: affinity purification with mass spectrometry; PC-3 cell lysate immunoprecipitated with anti-HMGB1 antibody on protein A/G beads, SDS-PAGE, silver staining, differential band analysed by LC-MS/MS

## Brahma-related gene 1 (BRG1, also known as SMARCA4) (from UniProt P51532 1-1647)
  binding: binds
